From article PMC9643838
Results are given in words; binding and its absence hold for the method and conditions named.

Amino acid sequences for entries named in this document (tags omitted). Residues count along the entry.
UniProt P00451, residues 2041-2351: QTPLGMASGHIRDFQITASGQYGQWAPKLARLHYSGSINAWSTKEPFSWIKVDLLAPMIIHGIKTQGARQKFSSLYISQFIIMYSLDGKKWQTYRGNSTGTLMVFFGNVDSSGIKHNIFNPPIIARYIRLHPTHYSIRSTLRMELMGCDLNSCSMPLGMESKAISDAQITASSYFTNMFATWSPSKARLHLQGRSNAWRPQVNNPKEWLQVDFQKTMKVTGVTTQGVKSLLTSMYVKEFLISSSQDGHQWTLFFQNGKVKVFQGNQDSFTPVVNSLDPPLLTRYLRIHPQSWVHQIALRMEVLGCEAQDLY

Target: human factor VIII C1C2 domains, wildtype (human) (UniProt P00451)
Experiment: SEC; purified wildtype C1C2 at 225 mM NaCl; test for higher order oligomers; both purified

binding: no binding
Substance: human factor VIII C1C2 domains, wildtype (from UniProt P00451 2041-2351) (domain or fragment)
